# Test results from the supplement of paper PMC9135407.
# Values joined by “and” are separate entries in the source; they are usually repeats but may differ in a detail not shown here. Equal entries are not always repeated. Structures can show the parent of a compound that is named as a salt. ± gives the standard deviation of the averaged measurements. The list shows a part of the results. Baselines shift from plate to plate; read single values as rough.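 Culture-activated primary human stellate myofibroblasts, where regained lipid droplets signal inactivation. Value: share of Hoechst-counted cells above a per-plate Bodipy cutoff, in duplicate wells, with DMSO negative and nortriptyline positive controls on each plate. Hits: a control-normalized score above the plate's top-tenth-percentile nortriptyline wells, or one of a plate's three best wells. Final well concentrations are not given.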
# System: primary human hepatic stellate cells (donor 1)
# Assay: percent Bodipy-positive cells; higher = more lipid droplet accumulation
# Conditions: 48 h
# [1] = library stock concentration: 3.33 mM
# [2] = library stock concentration: 10 mM
# [3] = library stock concentration: 1 mM
structure (smiles),measurement,setting,value
S=C=Nc1cccc(NC(=S)NCCCCNC(=S)Nc2cccc(N=C=S)c2)c1,percent Bodipy-positive cells,[1],9.7 ± 0.91%
same,percent Bodipy-positive cells,[2],14.5 ± 2.3%
CC(C)[C@H](CO)Nc1nc(Nc2cc(N)cc(Cl)c2)c2ncn(C(C)C)c2n1 [Aminopurvalanol A],percent Bodipy-positive cells,[1],5.12 ± 0.26%
same,percent Bodipy-positive cells,[2],12 ± 1%
O=C(c1ccc(OCCN2CCCCC2)cc1)c1c(-c2ccc(O)cc2)sc2cc(O)ccc12 [Raloxifene hydrochloride],percent Bodipy-positive cells,,22 ± 7.6%
O=C(c1ccc(OCCN2CCCCC2)cc1)c1c(-c2ccc(O)cc2)sc2cc(O)ccc12,percent Bodipy-positive cells,[2],88.8 ± 3%
O=C(c1ccc(OCCN2CCCCC2)cc1)c1c(-c2ccc(O)cc2)sc2cc(O)ccc12 [Raloxifene HCl],percent Bodipy-positive cells,[1],14.3 ± 6.3%
same,percent Bodipy-positive cells,[2],61.9 ± 0.96%
O=C1c2ccccc2-c2n[nH]c3cccc1c23,percent Bodipy-positive cells,library stock concentration: 80 uM,24.2 ± 1.1%
same,percent Bodipy-positive cells,library stock concentration: 400 uM,27.2 ± 7.4%
same,percent Bodipy-positive cells,library stock concentration: 2 mM,15.2 ± 1%
same,percent Bodipy-positive cells,[1],8.1 ± 5.6%
O=C1c2ccccc2-c2n[nH]c3cccc1c23 [JNK Inhibitor II],percent Bodipy-positive cells,[1],18.4 ± 0.78%
CCOc1nc(NC(=O)Cc2cc(OC)ccc2OC)cc(N)c1C#N [JNK Inhibitor VIII],percent Bodipy-positive cells,[1],11.9 ± 0.42%
CCCCC[C@H](O)/C=C/[C@@H]1[C@@H](C/C=C\CCCC(=O)O)[C@H](O)C[C@H]1O [Prostaglandin F2.beta. (tromethamine salt)],percent Bodipy-positive cells,[3],9.92 ± 3.5%
CCCCC[C@H](O)/C=C/[C@@H]1[C@@H](C/C=C\CCCC(=O)O)[C@H](O)C[C@H]1O [Prostaglandin F2.beta.],percent Bodipy-positive cells,[3],11.7 ± 2.9%
"CCCCC[C@H](O)/C=C/[C@@H]1[C@@H](C/C=C\CCCC(=O)O)[C@H](O)C[C@H]1O [9b,11a-Prostaglandin F2]",percent Bodipy-positive cells,[3],10.9 ± 5%
CNC(=O)c1ccc(N2C(=S)N(c3cnc(C#N)c(C(F)(F)F)c3)C(=O)C23CCC3)cc1F,percent Bodipy-positive cells,[1],7.54 ± 3.3%
same,percent Bodipy-positive cells,[2],13.5 ± 8.5%
CCO/C(O)=C1\C(COCCN)=NC(C)=C(C(=O)OC)C1c1ccccc1Cl (stereo unspecified),percent Bodipy-positive cells,[2],99 ± 0.99%
COc1cc(C=C(C#N)C(N)=O)cc(CSc2nc3ccccc3s2)c1O [Tyrphostin AG-825],percent Bodipy-positive cells,library stock concentration: 12.6 mM,21.7 ± 3.6%
CNCCCN1c2ccccc2CCc2ccccc21.Cl,percent Bodipy-positive cells,[2],97.64 ± 0.96%
CCCCCCCCCCCCCC(=O)OCC [Myristic Acid ethyl ester],percent Bodipy-positive cells,[3],11.6 ± 0.72%
CC1(C)CCCC2(C)C1CCC1(C)OC(=O)CC12 (stereo unspecified) [Sclareolide],percent Bodipy-positive cells,[1],8.63 ± 0.55%
same,percent Bodipy-positive cells,[2],28.1 ± 2.6%
Cc1onc(-c2ccccc2)c1C(=O)N[C@@H]1C(=O)N2[C@@H]1SC(C)(C)[C@@H]2C(=O)O [Micropenin],percent Bodipy-positive cells,[2],56.2 ± 5.8%
Cc1onc(-c2ccccc2)c1C(=O)N[C@@H]1C(=O)N2[C@@H]1SC(C)(C)[C@@H]2C(=O)O [Oxacillin sodium monohydrate],percent Bodipy-positive cells,library stock concentration: 5 mM,11.1 ± 2.5%
Cc1onc(-c2ccccc2)c1C(=O)N[C@@H]1C(=O)N2[C@@H]1SC(C)(C)[C@@H]2C(=O)O [Oxacillin sodium],percent Bodipy-positive cells,library stock concentration: 4.7 mM,3.35 ± 3.2%
same,percent Bodipy-positive cells,[2],10.3 ± 2.5%
O=C(O)CNC(=O)C(CS)Cc1ccccc1 (stereo unspecified) [Thiorphan],percent Bodipy-positive cells,,26.8 ± 4.3%
CN(C)[C@@H](CCOc1cccc2ccccc12)c1ccccc1 [Dapoxetine HCl],percent Bodipy-positive cells,[1],58.1 ± 20%
same,percent Bodipy-positive cells,[2],91.9 ± 4.5%
CN(C)CCCC1(c2ccc(F)cc2)OCc2cc(C#N)ccc21 (stereo unspecified) [Citalopram Hydrobromide],percent Bodipy-positive cells,,28.5 ± 0.51%
CN(C)CCCC1(c2ccc(F)cc2)OCc2cc(C#N)ccc21 (stereo unspecified) [Citalopram],percent Bodipy-positive cells,library stock concentration: 6.2 mM,35.5% and 51.3%
same,percent Bodipy-positive cells,[2],70.7 ± 1.5%
CN(C)CCCC1(c2ccc(F)cc2)OCc2cc(C#N)ccc21 (stereo unspecified) [Citalopram hydrobromide],percent Bodipy-positive cells,[2],48.4% and 45.8%

# For convenience, part of the list above:
structure (smiles),measurement,setting,value
"CCCCC[C@H](O)/C=C/[C@@H]1[C@@H](C/C=C\CCCC(=O)O)[C@H](O)C[C@H]1O [9b,11a-Prostaglandin F2]",percent Bodipy-positive cells,[3],10.9 ± 5%
CNC(=O)c1ccc(N2C(=S)N(c3cnc(C#N)c(C(F)(F)F)c3)C(=O)C23CCC3)cc1F,percent Bodipy-positive cells,[1],7.54 ± 3.3%
same,percent Bodipy-positive cells,[2],13.5 ± 8.5%
